Measured values taken from PubChem BioAssay AID588590 (National Center for Advancing Translational Sciences (NCATS), 2011).
Screen size: about 390,000 compounds; about 4,000 (1%) were called active. Inconclusive means that the source gave no clear call. Such entries were picked first, then a sample of the others. Calls follow the shape of the dose curve; as a rule, active = well fitted inhibition curve with a large enough effect; inconclusive = small, poorly fitted or top-dose-only effect, or another doubt; inactive = no such curve, though single readings can be large or run the other way. Potencies of inconclusive entries are doubtful fits and often do not repeat.

The chains behind the UniProt entries cited, without tags or fusion partners. Where a name states a change or a piece, a line headed by the entry shows the natural chain unless it says otherwise.
UniProt Q9UNA4: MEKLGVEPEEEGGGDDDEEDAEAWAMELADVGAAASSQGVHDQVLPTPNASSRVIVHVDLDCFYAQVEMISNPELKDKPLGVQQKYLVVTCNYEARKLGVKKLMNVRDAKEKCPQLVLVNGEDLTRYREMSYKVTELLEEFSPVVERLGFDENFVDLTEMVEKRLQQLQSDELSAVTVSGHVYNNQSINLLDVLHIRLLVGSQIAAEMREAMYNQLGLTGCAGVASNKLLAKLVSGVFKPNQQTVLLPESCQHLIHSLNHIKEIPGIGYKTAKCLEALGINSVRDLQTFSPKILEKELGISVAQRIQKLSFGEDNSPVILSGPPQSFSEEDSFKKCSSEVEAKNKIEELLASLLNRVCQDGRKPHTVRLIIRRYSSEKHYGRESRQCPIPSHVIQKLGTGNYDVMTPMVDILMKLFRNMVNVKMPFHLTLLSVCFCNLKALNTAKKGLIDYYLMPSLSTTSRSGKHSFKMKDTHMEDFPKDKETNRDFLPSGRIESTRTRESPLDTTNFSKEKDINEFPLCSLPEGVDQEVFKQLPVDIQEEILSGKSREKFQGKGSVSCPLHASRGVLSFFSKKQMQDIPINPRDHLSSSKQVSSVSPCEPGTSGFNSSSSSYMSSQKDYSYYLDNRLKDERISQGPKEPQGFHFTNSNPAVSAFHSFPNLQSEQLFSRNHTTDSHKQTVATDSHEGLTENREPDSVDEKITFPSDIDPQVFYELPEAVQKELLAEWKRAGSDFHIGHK

The compounds below were run against DNA polymerase iota (Homo sapiens) (UniProt Q9UNA4) (assay: qHTS for Inhibitors of Polymerase Iota). Conditions: Pol iota fluorescent replication assay, 10 min; series mostly up to 115 µM.
Procedure, shortened: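 Fluorescent replication assay read twice, at 0 min and 10 min after adding 50 nM (final) substrate. Enzyme (10 nM) and compounds were first incubated 15 min at room temperature; enzyme-free buffer wells were negative controls.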
Potency is read from the fitted curve at half-maximal effect.

SMILES	Potency
CCC(=O)OCC(=O)C1(OC(=O)CC)[C@H](C)C[C@H]2[C@H]3[C@H]([C@@H](O)C[C@@]21C)[C@@]1(C)C=CC(=O)C=C1C[C@H]3Cl (stereo partly specified)	inconclusive: 1.12 µM [inhibitor, full curve, poor fit]
COC(=O)CCCC1=CC2=CC(=O)C(C)(OC(=O)C3CCCC3)C(=O)C2=CO1 (stereo unspecified)	active: 22.4 µM
CC12CCC(=O)N1C(C(=O)Nc1nc3ccc(Cl)cc3s1)CS2 (stereo unspecified)	inconclusive: 25.1 µM [inhibitor, partial curve, poor fit]
O=C(COC(=O)c1ccc(Br)o1)Nc1ncc(Cl)cc1Cl	inconclusive: 50.1 µM [inhibitor, partial curve, poor fit]
CC1CCCN(C(=O)c2ccc3c(c2)OCO3)C1 (stereo unspecified)	inconclusive: 63.1 µM [inhibitor, partial curve, poor fit]
Cc1oc(-c2cccc(Cl)c2)nc1CN1CCCC(C(=O)NC(C)c2ccc3c(c2)OCCO3)C1 (stereo unspecified)	inconclusive: 79.4 µM [inhibitor, single point]
COc1ccc(S(=O)(=O)NCC2CCCN(Cc3cccnc3)C2)cc1 (stereo unspecified)	inconclusive: 79.4 µM [inhibitor, partial curve]
CCOc1cc(/C=C2\SC(=S)N(NC(=O)c3cccnc3)C2=O)ccc1O	active: 28.2 µM
CC1CCN(CCCNC(=O)c2coc3nc4ccccc4nc23)CC1	inconclusive: 31.6 µM [inhibitor, single point]
Cc1nc2ccccn2c1C(=O)N/N=C/c1ccc([N+](=O)[O-])o1	active: 11.2 µM
O=C(NCc1ccco1)c1cnc2n(c1=O)CCS2	inconclusive: 35.5 µM [inhibitor, partial curve]
CCOC(=O)c1ccc(N2C(=O)C3CC=CCC3C2=O)cc1 (stereo unspecified)	active: 89.1 µM
CC(=O)c1sc(NC(=O)c2oc3ccc(F)cc3c2C)nc1C	inconclusive: 14.1 µM [inhibitor, full curve]
CC(C)c1ccc(C2CC(=O)N3CN(Cc4ccco4)CSC3=C2C#N)cc1 (stereo unspecified)	inconclusive: 17.8 µM [inhibitor, full curve, poor fit]
Cc1cnc(C(=O)OCC(=O)Nc2ccc(C)c(S(=O)(=O)N3CCCCC3)c2)cn1	inconclusive: 100 µM [inhibitor, partial curve, poor fit]
Cc1nc(NS(=O)(=O)c2cccs2)c2c3c(sc2n1)CCC3	inconclusive: 2.51 µM [inhibitor, full curve, poor fit]
COc1ccccc1N1CCN(CCCN2C(=O)C3CCCCN3C2=O)CC1 (stereo unspecified)	inconclusive: 44.7 µM [inhibitor, partial curve, poor fit]
Cc1c(CN2CCCC(C)C2)c(O)n(CCO)c(=O)c1C#N (stereo unspecified)	inactive
CCOC(=O)c1cc(-c2ccc(OC)cc2)n(CCC(=O)NCc2ccc(OC)cc2)c1C	inactive
COc1ccc(Nc2c3ccccc3nc3ccccc23)cc1	inconclusive: 15.8 µM [inhibitor, full curve, poor fit]
COc1ccc2nc(SCC(=O)NCc3ccc(S(N)(=O)=O)cc3)[nH]c2c1	inconclusive: 79.4 µM [inhibitor, single point]
CS(=O)(=O)c1ccc(C(=O)OCC(=O)Nc2cccnc2Cl)cc1[N+](=O)[O-]	inconclusive: 22.4 µM [inhibitor, full curve]

SMILES	Potency
CCC(C)Sc1ccc(-c2nc3ccc(C)cn3c2NC2CCCCC2)cc1 (stereo unspecified)	inconclusive: 31.6 µM [inhibitor, partial curve, poor fit]
Cc1ccccc1C(=O)Nc1nnc2n1CCS2	inactive
CCCS(=O)(=O)c1nc(S(=O)(=O)c2ccc(C)cc2)c(N(C)Cc2ccccc2)s1	inconclusive: 89.1 µM [inhibitor, single point]
c1ccc(Nc2ccnc(Nc3ccccc3)n2)cc1	inactive
CC(=O)c1cccc(CN2CCCC(C(=O)Nc3ccc(-c4ccco4)cc3)C2)c1 (stereo unspecified)	active: 44.7 µM
CCc1ccc(CCC(=O)Nc2ccc(C(=O)O)cc2)o1	inconclusive: 50.1 µM [inhibitor, partial curve, poor fit]
O=C1C2CCCN2C(=O)N1CCCCN1CCN(c2cccc(Cl)c2)CC1 (stereo unspecified)	inconclusive: 89.1 µM [inhibitor, partial curve]
COc1ccccc1-n1c(SCC(=O)Nc2cccc3ccccc23)nc(O)cc1=O	inconclusive: 22.4 µM [inhibitor, partial curve]
CCCc1nc2sc3ccccc3c(=O)c2c(=O)n1Cc1ccco1	inconclusive: 28.2 µM [inhibitor, full curve, poor fit]
C=CCNC(=O)/C(=C\c1ccc(Br)cc1)NC(=O)c1ccccc1OC	inactive
O=C(O)CN1C(=O)/C(=C\c2cc(Br)ccc2OCc2ccccc2Cl)SC1=S	inconclusive: 15.8 µM [inhibitor, full curve]
CCCS(=O)(=O)Nc1cccc(-c2nc3cccnc3s2)c1	inconclusive: 31.6 µM [inhibitor, single point]
Cc1cccc(C)c1OCCCn1c(CCNC(=O)C2CCCCC2)nc2ccccc21	inactive
O=C1C2N=NN(CC(=O)N3N=C(c4cccc5ccccc45)CC3c3ccccc3)C2C(=O)N1c1ccccc1 (stereo unspecified)	inconclusive: 15.8 µM [inhibitor, partial curve, poor fit]
NC(=O)CSc1nc2c(sc3ccccc32)c(=O)n1CCCC(=O)NCC1CCCO1 (stereo unspecified)	inconclusive: 89.1 µM [inhibitor, partial curve, poor fit]
O=C(Sc1ccccc1)c1cccc(Cn2cc(C(F)(F)F)ccc2=O)c1	inconclusive: 35.5 µM [inhibitor, partial curve, poor fit]
CCNc1nc(NCc2ccco2)c2ccccc2n1	inactive
N#Cc1c(/N=C/c2ccc(-c3ccccc3C(=O)O)o2)sc2c1CCCC2	inconclusive: 14.1 µM [inhibitor, partial curve, poor fit]
CCOc1ccc(Cn2c(SCCCCC#N)nc3c2c(=O)n(C)c(=O)n3C)cc1OCC	inconclusive: 22.4 µM [inhibitor, single point]
OCCN1CCN(CCOc2cccc(Cl)c2)CC1	inconclusive: 20 µM [inhibitor, partial curve]
CCn1nc(C(=O)Nc2nc(-c3ccccn3)cs2)c2ccccc2c1=O	inconclusive: 22.4 µM [inhibitor, partial curve, poor fit]
CS(=O)(=O)c1ccc2nc(NC(=O)c3ccc(Cl)cc3)sc2c1	inconclusive: 79.4 µM [inhibitor, single point]

Molecules listed so far containing bromine:
SMILES	Potency
O=C(COC(=O)c1ccc(Br)o1)Nc1ncc(Cl)cc1Cl	inconclusive: 50.1 µM [inhibitor, partial curve, poor fit]
C=CCNC(=O)/C(=C\c1ccc(Br)cc1)NC(=O)c1ccccc1OC	inactive
O=C(O)CN1C(=O)/C(=C\c2cc(Br)ccc2OCc2ccccc2Cl)SC1=S	inconclusive: 15.8 µM [inhibitor, full curve]

The list continues:

SMILES	Potency
CC1(C)CC(=O)C=C(c2ccc(OC(F)(F)F)cc2)C1	inconclusive: 79.4 µM [inhibitor, single point]
Nc1ccc2ccc(O)cc2c1	inconclusive: 12.6 µM [inhibitor, partial curve, poor fit]
O=C1C=C(Nc2ccc(Cl)cc2)CC(c2ccco2)C1 (stereo unspecified)	inconclusive: 10 µM [inhibitor, full curve, poor fit]
c1ccc(C2=NNC(=NC3CC3)SC2)cc1	inconclusive: 11.2 µM [inhibitor, full curve]
Cc1c(Cl)cnc(NC(=O)COC(=O)c2ccc([N+](=O)[O-])s2)c1Cl	active: 25.1 µM
Fc1ccccc1Cc1cn2cc(-c3ccc(Cl)cc3)nc2s1	inconclusive: 89.1 µM [inhibitor, single point]
COc1ccc(C2CC(c3ccccc3)Oc3ccc(OC)cc32)cc1 (stereo unspecified)	inactive
Cc1ccc(S(=O)(=O)Nc2ccc3c(c2)ncn3C(C)(C)C)cc1	inconclusive: 112 µM [inhibitor, single point]
COc1ccccc1NC(=O)c1oc2ccccc2c1NC(=O)c1cccc(OC)c1OC	inactive
O=C1/C(=C/c2ccc(O)c([N+](=O)[O-])c2)SC(=S)N1Cc1ccccc1	inactive
O=C(/C=C/c1ccccc1)c1ccccc1	active: 22.4 µM
CN(C)S(=O)(=O)N1CCC(CCCC2CCN(S(=O)(=O)N(C)C)CC2)CC1	inactive
CCOC(=O)c1sc(NC(=O)CSc2nc(C)cc(C(F)(F)F)n2)c(C#N)c1C	inconclusive: 17.8 µM [inhibitor, partial curve, poor fit]
CCCCOc1ccc(C(=O)Nc2ccc(SC(F)F)cc2)cc1OC	inconclusive: 35.5 µM [inhibitor, partial curve, poor fit]
O=C(O)c1c(C(=O)O)c(-c2ccc(Cl)c(Cl)c2)n2c1CSC2	inconclusive: 15.8 µM [inhibitor, full curve, poor fit]
O=C1NC(=O)/C(=C/c2ccccc2OCc2ccccc2)S1	inactive
Cc1coc(C)c1C(=O)CC1(O)C(=O)N(Cc2ccccc2)c2ccccc21 (stereo unspecified)	inconclusive: 7.08 µM [inhibitor, partial curve, poor fit]
C=CCn1c(SCc2nc3sc(C(=O)O)c(C)c3c(=O)[nH]2)nnc1-c1ccc(F)cc1	inactive
CCOc1ccc(CNC(=O)C2Cc3cc(S(=O)(=O)N4CCCCC4)ccc3N2C(C)=O)cc1 (stereo unspecified)	inconclusive: 89.1 µM [inhibitor, single point]
COc1ccc(/C=C/C(=O)NC(=S)Nc2ccc(C(=O)O)cc2)cc1	inconclusive: 28.2 µM [inhibitor, partial curve, poor fit]
CCOC(=O)c1c(N)sc2c1CCC1C(=O)N(C3CCCCC3)C(=O)C21 (stereo unspecified)	inconclusive: 25.1 µM [inhibitor, single point]
CCOc1ccc(OCCC(=O)OCC(=O)NC2CC2)cc1	inconclusive: 44.7 µM [inhibitor, partial curve, poor fit]
